This is an account of results in US20130065857A1, “NOVEL DXR INHIBITORS FOR ANTIMICROBIAL THERAPY” (Baylor College of Medicine, priority 2009, published 2013).

In brackets after ≈: the same amount, converted by molar mass.

The subject of this experiment is E. coli (B/r strain). As to the kind of experiment: microbe, parasite or virus in culture. It counts as cell-based. The conditions noted are these: Escherichia coli, 24 h, read-out: Minimal inhibition concentrations, E. coli.

Regarding `CC1(C)S[C@@H]2[C@H](NC(=O)[C@H](N)c3ccccc3)C(=O)N2[C@H]1C(=O)O` [ampicillin], the MIC was found to be 5 µM (≈ 1.75 µg/mL).
